Data from patent US7888089B2, “eNOS mutations useful for gene therapy and therapeutic screening” (Yale University, priority 1999, dated 2011).

Test system: COS cells
Assay: Membrane targeting of NOS constructs in COS cells
Assay type: cell-based
Conditions: preliminary experiments

Row | Substance | total protein in the membrane fraction of cells
1 | nNOS: rat neuronal NOS [reference compound] | 5-10%
2 | myr-nNOS: nNOS with new amino terminus containing the eNOS N-myristoylation consensus site (MGNLKSVG) | approximately 60%
